From patent US20210177881A1, “MEDICAMENT FOR PREVENTING AND/OR TREATING PAIN AND/OR FEVER, COMPOSITE PRODUCT AND USE THEREOF” (SHANGHAI TONGLIAN PHARMACEUTICAL CO., LTD., priority 2018, published 2021) come the findings set out here.

The test system of this assay is mice. Kind of assay: Analgesia experiment on a hot plate in mice. Type of assay: in vivo, Kunming mice. The note with it: 15 mg/kg. From the text:
The mouse hot plate method is a classic method for screening analgesics. Its principle is to put the mouse on a hot plate heated to a constant temperature of (55±0.1 DEG C.) in advance, and when the foot of the mouse is stimulated by the hot plate to produce pain, the time required for foot licking is taken as the pain threshold, which is taken as the observation index, and the changes of threshold before and after medication are compared to evaluate the analgesic effect.
Before the experiment, the mice in each group were given intragastric administration. The mice in the blank control group were given the same volume of normal saline every day for 3 consecutive days.
The mice were put on a hot plate pain meter heated to 55 DEG C. in advance, and the time from putting into the hot plate to licking hind feet was recorded with a stopwatch as the pain threshold of the mice. […] It was measured once at 30, 60, 90 and 120 min after administration. After the end of the experiment, the percentage of pain threshold increase was calculated according to the measured average value of pain threshold. The percentage of pain threshold increase %=(an average pain threshold after administration−an average pain threshold before administration)÷the average pain threshold before administration×100%.

Turning to `CN1CC[C@]23c4c5ccc(O)c4O[C@H]2[C@@H](O)C=C[C@H]3[C@H]1C5.Cl` [positive control, morphine hydrochloride], the “time to lick hind feet after administration” value is listed as 31.84 ± 7.17 s (30 min), 29.17 ± 6.17 s (60 min), 28.77 ± 6.71 s (90 min) and 26.17 ± 5.14 s (120 min).
